# Article PMC7266993
# Changes are numbered by the printed parent chain. No constants are given. Whether binding was seen depends on the method and setting. Binding seen in cells or lysates may run through a third protein. For some of these results: Binding can be weak; no strength is given. Tags and fused reporters may be left off the sequences shown.
# Experiments:
# [1] = molecular target: T1, FLAG epitope-tagged STAG1, wild type (transient, HEK293) (human) (UniProt Q8WVM7); assay: co-IP; FLAG-STAG1 variants transiently expressed in HEK293, 48 h; anti-FLAG M2 agarose 2 h; 25 mM Tris-HCl pH 7.5, 100 mM KCl, 5 mM MgCl2, 0.2% NP-40, 10% glycerol, benzonase; immunoblot and capillary immunodetection of cohesin subunits
# T1 sequence: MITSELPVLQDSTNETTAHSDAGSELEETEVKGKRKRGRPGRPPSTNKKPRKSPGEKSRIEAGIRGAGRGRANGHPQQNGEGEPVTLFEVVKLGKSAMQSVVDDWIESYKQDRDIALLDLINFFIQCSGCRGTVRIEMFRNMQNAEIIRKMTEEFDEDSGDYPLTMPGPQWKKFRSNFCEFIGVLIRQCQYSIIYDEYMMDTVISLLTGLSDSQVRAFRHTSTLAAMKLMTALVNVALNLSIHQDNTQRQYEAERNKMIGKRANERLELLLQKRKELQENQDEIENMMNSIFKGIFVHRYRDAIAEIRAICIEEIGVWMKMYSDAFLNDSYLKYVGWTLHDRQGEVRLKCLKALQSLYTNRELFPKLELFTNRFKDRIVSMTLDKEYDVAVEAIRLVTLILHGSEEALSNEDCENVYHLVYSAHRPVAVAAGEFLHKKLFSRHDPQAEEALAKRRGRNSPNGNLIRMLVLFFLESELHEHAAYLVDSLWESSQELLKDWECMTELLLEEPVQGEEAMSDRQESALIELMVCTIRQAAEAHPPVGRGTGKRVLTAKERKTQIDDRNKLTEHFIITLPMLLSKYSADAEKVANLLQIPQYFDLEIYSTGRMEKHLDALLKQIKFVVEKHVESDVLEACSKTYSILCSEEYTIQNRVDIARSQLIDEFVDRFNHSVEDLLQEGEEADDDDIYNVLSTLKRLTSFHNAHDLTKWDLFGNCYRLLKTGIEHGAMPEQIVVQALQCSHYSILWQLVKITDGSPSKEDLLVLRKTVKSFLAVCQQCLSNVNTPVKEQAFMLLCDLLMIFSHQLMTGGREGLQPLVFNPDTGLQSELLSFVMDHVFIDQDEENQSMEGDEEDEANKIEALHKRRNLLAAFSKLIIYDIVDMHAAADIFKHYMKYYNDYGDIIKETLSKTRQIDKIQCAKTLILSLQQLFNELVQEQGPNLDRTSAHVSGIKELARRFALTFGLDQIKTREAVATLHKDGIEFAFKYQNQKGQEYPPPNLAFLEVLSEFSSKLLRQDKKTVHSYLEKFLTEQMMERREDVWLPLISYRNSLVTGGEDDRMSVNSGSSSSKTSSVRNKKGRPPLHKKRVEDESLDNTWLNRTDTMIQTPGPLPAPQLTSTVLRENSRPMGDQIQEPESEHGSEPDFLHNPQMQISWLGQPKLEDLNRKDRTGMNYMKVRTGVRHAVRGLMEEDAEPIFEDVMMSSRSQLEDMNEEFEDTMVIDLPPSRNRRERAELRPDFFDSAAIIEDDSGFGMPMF
# [2] = molecular target: T2, FLAG–STAG1 D797K, siRNA-resistant transgene (stable, HCT 116 STAG2-502c4) (human) (UniProt Q8WVM7); assay: co-IP; FLAG-STAG1 variants stably expressed in HCT 116 STAG2-502c4; anti-FLAG M2 agarose overnight; 50 mM Tris-Cl pH 7.4, 150 mM NaCl, 0.5% NP-40; capillary immunodetection of cohesin ring members
# T2 sequence: T1 sequence with D797K
# [3] = molecular target: T3, FLAG–STAG1 wild type, siRNA-resistant transgene (stable, HCT 116 STAG2-502c4) (human) (UniProt Q8WVM7); assay: as above
# T3 sequence: T1 sequence
# [4] = molecular target: T4, FLAG–STAG1 D797A, siRNA-resistant transgene (stable, HCT 116 STAG2-502c4) (human) (UniProt Q8WVM7); assay: as above
# T4 sequence: T1 sequence with D797A
binding [1],binding [2],binding [3],binding [4],Substance
binds,,,,"SMC1 (endogenous, HEK293) (human (endogenous in HEK293))"
,no binding,binds,no binding,"SMC1 (endogenous, HCT 116 STAG2-502c4) (human (endogenous in HCT 116))"
